Experimental data reported in PMC7545097, “Mapping the native interaction surfaces of PREP1 with PBX1 by cross-linking mass-spectrometry and mutagenesis” (Scientific Reports, 2020).

Sequences of proteins named here, by UniProt entry; tags and fusion partners are left off. A change or cut given only in a name is not applied to a line headed by its entry.
UniProt P55347: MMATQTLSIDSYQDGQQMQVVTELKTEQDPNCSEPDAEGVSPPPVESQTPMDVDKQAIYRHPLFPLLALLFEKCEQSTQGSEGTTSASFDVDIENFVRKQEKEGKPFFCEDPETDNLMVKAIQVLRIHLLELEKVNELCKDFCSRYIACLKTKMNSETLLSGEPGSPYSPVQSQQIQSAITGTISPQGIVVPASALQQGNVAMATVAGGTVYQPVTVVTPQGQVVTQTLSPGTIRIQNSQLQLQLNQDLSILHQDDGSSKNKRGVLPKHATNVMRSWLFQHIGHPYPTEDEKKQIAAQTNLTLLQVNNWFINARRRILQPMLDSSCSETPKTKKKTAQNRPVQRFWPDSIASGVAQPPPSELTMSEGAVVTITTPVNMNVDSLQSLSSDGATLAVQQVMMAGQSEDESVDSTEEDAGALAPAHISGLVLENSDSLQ

Molecular target: T1, PBX1, endogenous in A549 cells (human (endogenous in A549)) (UniProt P40424)
T1 sequence: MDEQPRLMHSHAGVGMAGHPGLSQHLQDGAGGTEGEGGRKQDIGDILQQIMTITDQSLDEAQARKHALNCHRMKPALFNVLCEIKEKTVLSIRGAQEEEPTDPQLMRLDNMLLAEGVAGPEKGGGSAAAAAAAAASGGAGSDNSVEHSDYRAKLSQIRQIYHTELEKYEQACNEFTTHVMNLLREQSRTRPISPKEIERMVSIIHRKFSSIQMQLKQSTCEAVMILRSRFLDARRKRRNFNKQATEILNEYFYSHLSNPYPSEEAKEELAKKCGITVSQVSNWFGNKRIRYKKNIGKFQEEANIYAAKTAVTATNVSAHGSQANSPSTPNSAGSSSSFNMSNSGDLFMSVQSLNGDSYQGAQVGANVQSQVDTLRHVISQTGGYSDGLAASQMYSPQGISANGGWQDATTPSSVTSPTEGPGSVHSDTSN
Test: proximity ligation; in situ PLA (Duolink) in fixed A549 cells expressing PREP1-GFP constructs; anti-PBX1 and anti-GFP antibodies; nuclear and cytoplasmic foci counted

PREP1-GFP ΔHD (from UniProt P55347) was tested, and the binding was “binds”.

These are yes or no findings as the source states them, for the method shown. In cells and extracts the contact can be indirect. Binding calls can cover weak binding; strength is not graded here.
